{"source": "PubChem BioAssay AID743121 (NCATS, 2013)", "screen": "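Genes whose silencing strengthens cell killing by camptothecin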 (primary screen)", "cells": "MDA-MB-231 cells, a human breast cancer line", "reagent": "single siRNA against human genes, 20 nM siRNA (0.8 pmol per well)", "duration": "120 h (drug added 48 h after transfection, read 72 h later)", "challenge": "camptothecin 20 nM (about EC30) for 72 h; vehicle 0.1% DMSO in parallel plates", "read-out": "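Cell viability by ATP luminescence (CellTiter-Glo) as % of non-targeting siRNA wells, and the log2 ratio of viability without drug over viability with camptothecin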", "reading the numbers": "log2 vehicle/camptothecin viability: higher = stronger sensitisation to camptothecin", "active means": "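Each gene scored by redundant siRNA activity (RSA) over its individual siRNA ratios; a gene is called active at p < 0.001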", "note": "Here is a random part of about 26,000 reagents tested. In the full data, 167 (0.63%) were called active. 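Calls are per gene from RSA p-values that are not deposited; an individual active-marked siRNA can sensitise only weakly.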 Unmarked entries are inactive. The numbers tell different reagents against one gene apart. Further read-outs or replicates are left out here."}
{"gene knocked down": "TMPRSS11D (transmembrane serine protease 11D)", "reagent no.": 1, "log2 vehicle/camptothecin viability": 0.683}
{"gene knocked down": "TMPRSS11D (transmembrane serine protease 11D)", "reagent no.": 2, "log2 vehicle/camptothecin viability": -0.0452}
{"gene knocked down": "TMPRSS11D (transmembrane serine protease 11D)", "reagent no.": 3, "log2 vehicle/camptothecin viability": -0.482}
{"gene knocked down": "TMPRSS11D (transmembrane serine protease 11D)", "reagent no.": 4, "log2 vehicle/camptothecin viability": 0.232}
{"gene knocked down": "ESM1 (endothelial cell specific molecule 1)", "reagent no.": 1, "log2 vehicle/camptothecin viability": -0.108}
{"gene knocked down": "ESM1 (endothelial cell specific molecule 1)", "reagent no.": 2, "log2 vehicle/camptothecin viability": -0.012}
{"gene knocked down": "ESM1 (endothelial cell specific molecule 1)", "reagent no.": 3, "log2 vehicle/camptothecin viability": 0.0161}
{"gene knocked down": "ESM1 (endothelial cell specific molecule 1)", "reagent no.": 4, "log2 vehicle/camptothecin viability": -0.191}

2 successive entries from above, for reference:
{"gene knocked down": "TMPRSS11D (transmembrane serine protease 11D)", "reagent no.": 4, "log2 vehicle/camptothecin viability": 0.232}
{"gene knocked down": "ESM1 (endothelial cell specific molecule 1)", "reagent no.": 1, "log2 vehicle/camptothecin viability": -0.108}

The results go on.
{"gene knocked down": "USP51 (ubiquitin specific peptidase 51)", "reagent no.": 1, "log2 vehicle/camptothecin viability": -0.166}
{"gene knocked down": "USP51 (ubiquitin specific peptidase 51)", "reagent no.": 2, "log2 vehicle/camptothecin viability": -0.203}
{"gene knocked down": "USP51 (ubiquitin specific peptidase 51)", "reagent no.": 3, "log2 vehicle/camptothecin viability": -0.454}
{"gene knocked down": "USP51 (ubiquitin specific peptidase 51)", "reagent no.": 4, "log2 vehicle/camptothecin viability": 0.404}
{"gene knocked down": "AKR1D1 (aldo-keto reductase family 1 member D1)", "reagent no.": 1, "log2 vehicle/camptothecin viability": -0.152}
{"gene knocked down": "AKR1D1 (aldo-keto reductase family 1 member D1)", "reagent no.": 2, "log2 vehicle/camptothecin viability": 0.106}
{"gene knocked down": "AKR1D1 (aldo-keto reductase family 1 member D1)", "reagent no.": 3, "log2 vehicle/camptothecin viability": 0.133}
{"gene knocked down": "AKR1D1 (aldo-keto reductase family 1 member D1)", "reagent no.": 4, "log2 vehicle/camptothecin viability": -0.0162}
